Results taken from PubChem BioAssay AID624034 (National Center for Advancing Translational Sciences (NCATS), 2012).
Inconclusive means that the source gave no clear call. Such entries were picked first, then a sample of the others. Potencies beside an inconclusive call are fits to weak or partial responses and may not hold up. Active and inactive are the calls of the source. Calls come from the whole dose curve; as a rule, active = well fitted inhibition curve with a large enough effect; inconclusive = small, poorly fitted or top-dose-only effect; inactive = flat fitted curve, though single readings scatter.

By UniProt entry, the sequences of proteins in these tests, tags left out. Where a name states a change or a piece, a line headed by the entry shows the natural chain unless it says otherwise.
UniProt Q9HAZ1: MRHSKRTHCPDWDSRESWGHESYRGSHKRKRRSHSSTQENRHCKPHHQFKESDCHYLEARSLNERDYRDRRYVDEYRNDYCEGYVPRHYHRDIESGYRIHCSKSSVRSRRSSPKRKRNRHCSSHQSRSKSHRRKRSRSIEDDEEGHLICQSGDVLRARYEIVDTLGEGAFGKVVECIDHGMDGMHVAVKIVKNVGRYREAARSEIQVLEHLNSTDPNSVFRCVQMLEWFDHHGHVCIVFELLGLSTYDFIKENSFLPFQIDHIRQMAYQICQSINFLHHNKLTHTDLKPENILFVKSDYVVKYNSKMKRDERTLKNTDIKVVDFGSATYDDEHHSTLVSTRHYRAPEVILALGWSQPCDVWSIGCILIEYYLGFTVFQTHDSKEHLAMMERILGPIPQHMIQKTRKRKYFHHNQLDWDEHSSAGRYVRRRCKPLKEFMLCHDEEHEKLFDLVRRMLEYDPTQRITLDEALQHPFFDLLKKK

molecular target: Dual specificity protein kinase CLK4 (Homo sapiens) (UniProt Q9HAZ1); experiment: Reaction Biology data for inhibitors of CLK4: Probe SAR; conditions: Reaction Biology CLK4 kinase assay, 10 uM ATP; series mostly up to 10 µM
Description: Alternative splicing of pre-mRNAs plays a major role in the regulation of eukaryotic gene expression. Alternative splicing is now thought to be one of the primary reasons for the complexity of higher organisms leading to an average of three protein isoforms per gene. Aberrant splicing can lead to a number of diseases and is known to play a role in rare genetic diseases such as progeria syndrome. Hutchinson-Gilford Progeria Syndrome (HGPS) is a pediatric premature aging disease caused by a spontaneous mutation in the lamin A/C (LMNA) gene due to a single point mutation in the lamin A gene effecting 1 in 4 million people. To identify both specific splicing modulators of the lamin A gene as well as general splicing modulators, a cell-based HTS assay was developed using a minigene reporter system (AIDs, 1459 & 1487). […] This AID summarizes the characterization of lead compounds in Clk4. NIH Molecular Libraries Probe Production Centers Network [MLPCN] NIH Chemical Genomics Center [NCGC] MLPCN Grant: MH084827 Assay Submitter (PI): Tom Misteli
Compound IC50s were determined at Reaction Biology (http://www.reactionbiology.com) with ten concentration points starting at 10 uM in the assay using a 3-fold dilution series. The control compound staurosporine was also tested in the 10-dose IC50 mode with the same 3-fold serial dilution, again starting at 10 uM. All kinase reactions were performed using 10 uM ATP in the assay. 100% activity was taken from kinase reactions with DMSO alone (the vehicle used for compound stock solutions).

| SMILES | Potency |
| --- | --- |
| c1cncc(CNc2ccnc(-c3ccc4cn[nH]c4c3)n2)c1 | active: 1.29 µM |
| Clc1ccc(CNc2ncncc2-c2ccc3c(c2)OCO3)cc1 | inconclusive: 9.28 µM [inhibitor] |
| Cc1c(-c2ccnc(NCc3ccc(Cl)cc3)n2)sc(=O)n1C | active: 0.273 µM |
| Clc1ccc(Nc2nccc(-c3ccc4c(c3)OCO4)n2)cc1 | inconclusive: 5.45 µM [inhibitor] |
| COc1ccc(-c2ccnc(NCc3ccc(Cl)c(Cl)c3)n2)cc1OC | inactive |
| Clc1ccc(CNc2ccnc(-c3ccc4c(c3)OCO4)n2)cc1Cl | inconclusive: 9.73 µM [inhibitor] |
